The series has as its target T1, CYP168A1 (Pseudomonas aeruginosa, UniProt Q9I107).
T1 sequence (Q9I107 1-444): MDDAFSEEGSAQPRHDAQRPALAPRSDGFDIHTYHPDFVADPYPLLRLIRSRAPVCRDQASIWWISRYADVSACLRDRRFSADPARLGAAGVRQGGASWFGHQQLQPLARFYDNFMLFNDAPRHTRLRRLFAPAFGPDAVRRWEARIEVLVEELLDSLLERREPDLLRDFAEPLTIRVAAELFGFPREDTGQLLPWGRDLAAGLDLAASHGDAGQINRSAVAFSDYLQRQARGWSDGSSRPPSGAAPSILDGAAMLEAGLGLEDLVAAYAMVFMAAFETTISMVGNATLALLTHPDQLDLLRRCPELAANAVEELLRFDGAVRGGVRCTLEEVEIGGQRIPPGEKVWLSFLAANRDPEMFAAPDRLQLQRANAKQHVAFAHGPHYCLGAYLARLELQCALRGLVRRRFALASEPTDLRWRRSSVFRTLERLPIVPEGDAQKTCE
Kind of series: Ligand Kd determination by optical difference spectroscopy. In kind it is binding. To be noted: UV-visible titration of CYP168A1.

“Also recorded” adds a separate entry of the source.

The source of these data is publication PMC8913318 (The Journal of Biological Chemistry, 2022).

In the case of `O=C(O)c1cn(C2CC2)c2cc(N3CCNCC3)c(F)cc2c1=O` [ciprofloxacin], the “Spectral shift of the Soret band (difference spectrum type)” value is listed as “no spectral changes; also recorded: did not exert any changes”.
